The targets with a hit were mostly taken out for another list; the other results follow. The data scatter; read single values as rough. Only a part is listed here, and it is no random draw.

By UniProt entry, the sequences of proteins in these tests, tags left out. Where a name states a change or a piece, a line headed by the entry shows the natural chain unless it says otherwise.
UniProt Q9UQR0: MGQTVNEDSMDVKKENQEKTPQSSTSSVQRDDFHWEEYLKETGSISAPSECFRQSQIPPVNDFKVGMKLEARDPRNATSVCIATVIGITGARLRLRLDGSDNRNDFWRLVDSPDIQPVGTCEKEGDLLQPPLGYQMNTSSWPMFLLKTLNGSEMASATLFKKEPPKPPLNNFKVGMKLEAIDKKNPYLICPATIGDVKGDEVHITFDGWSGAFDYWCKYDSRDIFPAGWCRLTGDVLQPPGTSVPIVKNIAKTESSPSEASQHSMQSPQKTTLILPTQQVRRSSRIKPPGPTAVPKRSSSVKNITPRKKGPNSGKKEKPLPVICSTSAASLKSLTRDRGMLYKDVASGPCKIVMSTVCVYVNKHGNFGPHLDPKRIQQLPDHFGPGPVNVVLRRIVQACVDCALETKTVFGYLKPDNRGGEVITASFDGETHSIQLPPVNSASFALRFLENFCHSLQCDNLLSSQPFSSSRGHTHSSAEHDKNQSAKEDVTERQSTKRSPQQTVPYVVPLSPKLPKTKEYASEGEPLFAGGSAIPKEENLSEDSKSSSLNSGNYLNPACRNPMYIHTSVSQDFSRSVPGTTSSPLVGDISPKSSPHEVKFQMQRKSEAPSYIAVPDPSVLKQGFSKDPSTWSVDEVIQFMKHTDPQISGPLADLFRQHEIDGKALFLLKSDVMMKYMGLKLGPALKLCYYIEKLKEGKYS
UniProt Q9UMS4: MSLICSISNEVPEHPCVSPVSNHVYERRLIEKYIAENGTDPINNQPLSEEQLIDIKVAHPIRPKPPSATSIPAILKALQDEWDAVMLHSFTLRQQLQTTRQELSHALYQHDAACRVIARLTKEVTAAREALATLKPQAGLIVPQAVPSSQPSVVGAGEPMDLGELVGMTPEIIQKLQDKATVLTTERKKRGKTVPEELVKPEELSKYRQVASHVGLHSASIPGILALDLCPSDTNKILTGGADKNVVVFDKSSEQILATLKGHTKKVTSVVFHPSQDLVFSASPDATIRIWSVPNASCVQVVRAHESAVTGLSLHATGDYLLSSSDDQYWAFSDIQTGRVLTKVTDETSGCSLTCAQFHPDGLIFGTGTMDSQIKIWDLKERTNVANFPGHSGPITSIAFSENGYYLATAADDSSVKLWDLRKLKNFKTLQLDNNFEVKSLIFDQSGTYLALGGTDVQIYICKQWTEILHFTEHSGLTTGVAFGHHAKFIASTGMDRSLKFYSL
UniProt Q9Y2H0: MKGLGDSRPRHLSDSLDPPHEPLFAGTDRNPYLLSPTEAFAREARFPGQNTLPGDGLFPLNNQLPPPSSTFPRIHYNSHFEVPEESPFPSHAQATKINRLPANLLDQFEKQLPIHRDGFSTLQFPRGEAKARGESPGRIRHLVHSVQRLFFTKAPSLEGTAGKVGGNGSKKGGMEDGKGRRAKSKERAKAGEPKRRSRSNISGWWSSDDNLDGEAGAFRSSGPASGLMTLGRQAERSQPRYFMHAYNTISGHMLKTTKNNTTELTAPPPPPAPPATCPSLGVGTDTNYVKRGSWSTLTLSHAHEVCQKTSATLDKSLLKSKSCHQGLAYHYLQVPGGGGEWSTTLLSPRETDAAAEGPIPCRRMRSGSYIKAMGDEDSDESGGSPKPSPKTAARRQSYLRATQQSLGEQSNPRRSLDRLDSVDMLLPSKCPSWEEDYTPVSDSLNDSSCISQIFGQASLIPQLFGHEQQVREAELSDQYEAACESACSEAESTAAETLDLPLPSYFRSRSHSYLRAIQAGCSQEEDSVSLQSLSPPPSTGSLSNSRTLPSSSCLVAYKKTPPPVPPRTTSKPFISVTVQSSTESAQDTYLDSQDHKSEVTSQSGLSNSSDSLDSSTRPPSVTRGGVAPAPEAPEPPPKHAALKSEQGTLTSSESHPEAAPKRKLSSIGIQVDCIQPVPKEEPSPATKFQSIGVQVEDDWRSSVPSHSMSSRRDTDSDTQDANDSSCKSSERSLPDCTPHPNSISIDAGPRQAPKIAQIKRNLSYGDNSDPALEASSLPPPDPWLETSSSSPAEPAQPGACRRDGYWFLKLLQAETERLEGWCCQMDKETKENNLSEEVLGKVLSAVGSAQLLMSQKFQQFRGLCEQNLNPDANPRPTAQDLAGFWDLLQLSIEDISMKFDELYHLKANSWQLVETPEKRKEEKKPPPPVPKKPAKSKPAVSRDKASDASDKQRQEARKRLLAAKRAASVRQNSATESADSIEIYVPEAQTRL
UniProt Q9UJS0: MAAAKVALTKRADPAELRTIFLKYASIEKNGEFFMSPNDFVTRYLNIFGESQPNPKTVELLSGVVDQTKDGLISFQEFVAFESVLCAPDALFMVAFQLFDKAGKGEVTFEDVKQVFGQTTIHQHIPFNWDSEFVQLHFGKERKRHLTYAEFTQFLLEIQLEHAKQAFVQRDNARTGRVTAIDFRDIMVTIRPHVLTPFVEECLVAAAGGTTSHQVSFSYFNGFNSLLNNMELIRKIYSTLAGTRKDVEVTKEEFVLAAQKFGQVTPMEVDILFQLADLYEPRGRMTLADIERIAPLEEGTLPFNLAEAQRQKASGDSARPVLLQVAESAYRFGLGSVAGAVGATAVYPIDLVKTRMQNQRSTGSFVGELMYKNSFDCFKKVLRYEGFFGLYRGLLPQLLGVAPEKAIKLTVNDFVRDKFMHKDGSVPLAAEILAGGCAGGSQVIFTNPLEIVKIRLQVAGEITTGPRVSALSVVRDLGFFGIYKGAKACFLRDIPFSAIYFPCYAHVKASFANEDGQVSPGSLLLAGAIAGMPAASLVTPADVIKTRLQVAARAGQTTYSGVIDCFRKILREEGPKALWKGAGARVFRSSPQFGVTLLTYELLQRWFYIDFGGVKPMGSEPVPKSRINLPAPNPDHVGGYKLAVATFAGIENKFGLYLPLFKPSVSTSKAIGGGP
UniProt Q9UPR0: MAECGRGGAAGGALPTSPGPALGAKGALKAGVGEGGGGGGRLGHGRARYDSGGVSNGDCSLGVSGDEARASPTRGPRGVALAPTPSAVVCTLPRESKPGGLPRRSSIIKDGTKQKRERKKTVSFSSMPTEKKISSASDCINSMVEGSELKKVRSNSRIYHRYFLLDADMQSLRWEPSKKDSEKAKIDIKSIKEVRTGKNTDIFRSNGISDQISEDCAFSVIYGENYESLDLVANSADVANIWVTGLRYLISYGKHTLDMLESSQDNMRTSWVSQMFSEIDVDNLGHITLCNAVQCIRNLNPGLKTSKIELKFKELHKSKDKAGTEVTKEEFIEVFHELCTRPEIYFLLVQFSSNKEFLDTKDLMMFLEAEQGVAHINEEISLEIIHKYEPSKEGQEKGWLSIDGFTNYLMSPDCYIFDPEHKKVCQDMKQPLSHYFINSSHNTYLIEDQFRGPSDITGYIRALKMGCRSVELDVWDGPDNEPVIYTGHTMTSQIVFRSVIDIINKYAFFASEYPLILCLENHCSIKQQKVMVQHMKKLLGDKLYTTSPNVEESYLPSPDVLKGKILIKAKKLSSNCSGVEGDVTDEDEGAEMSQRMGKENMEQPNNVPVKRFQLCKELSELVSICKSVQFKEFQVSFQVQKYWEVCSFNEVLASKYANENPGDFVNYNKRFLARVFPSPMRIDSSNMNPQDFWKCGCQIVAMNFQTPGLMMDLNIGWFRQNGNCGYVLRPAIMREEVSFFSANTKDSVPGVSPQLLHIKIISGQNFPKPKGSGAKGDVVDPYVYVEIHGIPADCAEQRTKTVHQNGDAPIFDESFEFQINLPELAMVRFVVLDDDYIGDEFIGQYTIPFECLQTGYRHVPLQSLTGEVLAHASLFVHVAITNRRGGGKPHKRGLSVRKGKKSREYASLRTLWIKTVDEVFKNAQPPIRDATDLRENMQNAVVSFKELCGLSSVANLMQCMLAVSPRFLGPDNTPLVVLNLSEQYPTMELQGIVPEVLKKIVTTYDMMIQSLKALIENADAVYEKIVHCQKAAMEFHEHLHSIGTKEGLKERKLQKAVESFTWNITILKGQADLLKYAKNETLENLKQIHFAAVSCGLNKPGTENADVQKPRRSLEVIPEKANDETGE
UniProt Q9Y483: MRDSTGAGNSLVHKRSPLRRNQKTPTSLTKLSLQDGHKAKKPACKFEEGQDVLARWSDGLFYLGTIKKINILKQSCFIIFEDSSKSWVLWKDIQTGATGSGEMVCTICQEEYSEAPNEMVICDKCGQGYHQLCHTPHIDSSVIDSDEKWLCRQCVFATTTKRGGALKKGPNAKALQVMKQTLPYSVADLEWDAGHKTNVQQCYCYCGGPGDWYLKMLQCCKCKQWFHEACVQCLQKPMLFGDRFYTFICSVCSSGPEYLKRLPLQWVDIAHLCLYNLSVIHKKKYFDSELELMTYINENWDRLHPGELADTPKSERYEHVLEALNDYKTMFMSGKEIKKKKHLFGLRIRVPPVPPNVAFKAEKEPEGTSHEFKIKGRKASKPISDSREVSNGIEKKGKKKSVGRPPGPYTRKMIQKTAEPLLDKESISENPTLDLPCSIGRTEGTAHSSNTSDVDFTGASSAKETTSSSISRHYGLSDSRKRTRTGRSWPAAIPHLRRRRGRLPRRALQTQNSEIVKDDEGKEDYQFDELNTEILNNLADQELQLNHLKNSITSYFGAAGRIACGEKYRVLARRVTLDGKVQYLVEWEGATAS
UniProt Q9ULP9: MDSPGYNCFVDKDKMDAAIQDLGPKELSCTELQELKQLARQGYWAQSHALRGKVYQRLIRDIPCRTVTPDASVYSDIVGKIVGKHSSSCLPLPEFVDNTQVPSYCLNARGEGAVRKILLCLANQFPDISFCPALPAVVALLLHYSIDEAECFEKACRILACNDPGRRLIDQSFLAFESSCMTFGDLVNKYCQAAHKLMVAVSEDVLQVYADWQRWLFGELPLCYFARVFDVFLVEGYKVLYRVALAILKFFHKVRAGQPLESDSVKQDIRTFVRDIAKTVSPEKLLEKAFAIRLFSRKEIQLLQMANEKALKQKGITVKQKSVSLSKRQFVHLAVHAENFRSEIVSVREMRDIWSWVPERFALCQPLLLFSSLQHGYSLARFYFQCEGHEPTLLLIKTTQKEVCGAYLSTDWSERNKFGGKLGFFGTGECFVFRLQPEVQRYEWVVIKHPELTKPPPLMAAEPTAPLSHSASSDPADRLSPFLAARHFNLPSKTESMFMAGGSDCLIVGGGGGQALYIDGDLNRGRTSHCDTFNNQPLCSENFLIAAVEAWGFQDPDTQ
UniProt Q9UKN8: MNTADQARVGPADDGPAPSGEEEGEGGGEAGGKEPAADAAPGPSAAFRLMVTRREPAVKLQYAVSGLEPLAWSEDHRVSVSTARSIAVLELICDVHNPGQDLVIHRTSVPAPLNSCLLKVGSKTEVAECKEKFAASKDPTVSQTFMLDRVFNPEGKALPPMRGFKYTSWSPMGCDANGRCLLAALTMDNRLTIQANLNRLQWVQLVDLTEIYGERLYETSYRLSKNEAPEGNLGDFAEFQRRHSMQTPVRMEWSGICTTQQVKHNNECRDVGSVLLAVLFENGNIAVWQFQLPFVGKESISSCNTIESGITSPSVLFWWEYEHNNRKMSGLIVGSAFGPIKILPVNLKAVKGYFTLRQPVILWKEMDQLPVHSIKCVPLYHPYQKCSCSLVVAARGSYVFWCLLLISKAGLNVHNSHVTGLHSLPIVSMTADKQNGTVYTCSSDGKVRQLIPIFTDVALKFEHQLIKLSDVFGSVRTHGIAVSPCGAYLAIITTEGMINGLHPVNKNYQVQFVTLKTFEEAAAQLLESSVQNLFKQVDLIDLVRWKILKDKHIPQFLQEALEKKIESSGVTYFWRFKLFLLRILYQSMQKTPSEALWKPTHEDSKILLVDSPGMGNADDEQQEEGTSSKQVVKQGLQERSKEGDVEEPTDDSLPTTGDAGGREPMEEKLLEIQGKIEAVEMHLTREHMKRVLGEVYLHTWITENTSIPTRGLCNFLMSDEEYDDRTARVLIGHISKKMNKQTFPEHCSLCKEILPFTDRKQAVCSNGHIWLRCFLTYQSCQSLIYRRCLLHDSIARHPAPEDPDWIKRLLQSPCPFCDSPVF
UniProt Q9ULV4, whole entry, looked up: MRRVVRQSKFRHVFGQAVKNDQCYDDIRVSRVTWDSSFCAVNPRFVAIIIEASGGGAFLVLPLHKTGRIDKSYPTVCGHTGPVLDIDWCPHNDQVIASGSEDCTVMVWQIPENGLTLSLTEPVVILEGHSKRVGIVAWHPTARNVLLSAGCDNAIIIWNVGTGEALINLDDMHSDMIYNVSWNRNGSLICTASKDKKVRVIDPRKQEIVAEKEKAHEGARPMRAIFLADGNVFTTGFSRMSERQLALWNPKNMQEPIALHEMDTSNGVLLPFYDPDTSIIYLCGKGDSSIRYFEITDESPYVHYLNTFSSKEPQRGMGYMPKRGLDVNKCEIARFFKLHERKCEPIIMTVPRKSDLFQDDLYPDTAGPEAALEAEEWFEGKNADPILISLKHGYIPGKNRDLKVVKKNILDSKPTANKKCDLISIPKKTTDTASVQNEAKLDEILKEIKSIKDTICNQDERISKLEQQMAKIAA

The results in this text go back to the supplement of paper PMC11006884.

Compound in the experiment: COC(=O)/C=C/c1ccccc1 [methyl cinnamate]
Briefly: log2 ratio of iodoacetamide-alkyne labeling of the cysteine site, DMSO over compound (competition); higher = stronger covalent engagement of the cysteine by the compound, active = 1 or more. The conditions noted are these: 500 µM; treatment time 1 h; system: HEK293T cell lysate. The gist of the method:
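HEK293T lysate (2 mg/mL) was treated with DMSO or electrophile (500 µM, 1 h, ambient temperature), then iodoacetamide alkyne (1 h), clicked to sCIP-TMT reagents, pooled, trypsin-digested overnight at 37 °C, streptavidin-enriched and acid-eluted. Peptides were run on Orbitrap Eclipse LC-MS/MS with FAIMS and quantified in FragPipe. The log2 competition ratio per cysteine is mean control-channel over mean compound-channel reporter intensity. Duplicate channels and three replicates were used, and cysteines quantified in only one replicate were excluded.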
As to ATP6V0A2 C165 (UniProt Q9Y487), the “log2 ratio of iodoacetamide-alkyne labeling” value (shortened to “log2 ratio”) is inactive: 0.161. With MSRB2 C45 (UniProt Q9Y3D2), the “log2 ratio” value is inactive: -0.0521. With SCML2 C559 (UniProt Q9UQR0), the “log2 ratio” value is inactive: 0.268. To VPS4A C403 (UniProt Q9UN37) belongs inactive: -0.0666; to COPS3 C25 (UniProt Q9UNS2), inactive: -0.138; to PRPF19 C298 (UniProt Q9UMS4), inactive: 0.0709.

In the case of PRR12 C173 (UniProt Q9ULL5), the “log2 ratio” value is inactive: 0.286.

On to DLGAP4 C726 (UniProt Q9Y2H0), for which the “log2 ratio” value was inactive: 0.4.

In the case of SLC25A13 C565 (UniProt Q9UJS0), the “log2 ratio” value was inactive: 0.018. On to GPN3 C219 (UniProt Q9UHW5), for which the “log2 ratio” value is inactive: 0.383. With KIDINS220 C412 (UniProt Q9ULH0), the “log2 ratio” value was inactive: 0.0653.

Turning to EXO1 C608 (UniProt Q9UQ84), the “log2 ratio” value is inactive: 0.0988. To PLCL2 C90 (UniProt Q9UPR0) belongs inactive: 0.123; to MBD1 C57 (UniProt Q9UIS9), inactive: 0.582; to GSTK1 C176 (UniProt Q9Y2Q3), inactive: 0.369.

For the target MTF2 C437 (UniProt Q9Y483), the “log2 ratio” value was inactive: 0.148. The result for TPX2 C594 (UniProt Q9ULW0) reads inactive: 0.519. Take LUC7L2 C59 (UniProt Q9Y383): the “log2 ratio” value is inactive: 0.394.

Regarding NFU1 C210 (UniProt Q9UMS0), the “log2 ratio” value was inactive: 0.65. As to TBC1D24 C89 (UniProt Q9ULP9), the “log2 ratio” value is inactive: -0.164. With BAZ1B C1045 (UniProt Q9UIG0), the “log2 ratio” value was inactive: 0.372. Consider GTF3C4 C814 (UniProt Q9UKN8), for which the “log2 ratio” value is inactive: 0.0649. The result for MCTS1 C113 (UniProt Q9ULC4) reads inactive: 0.0072; that for PA2G4 C179 (UniProt Q9UQ80), inactive: -0.0874. To GPATCH8 C569 (UniProt Q9UKJ3) belongs inactive: 0.33; to HECTD1 C436 (UniProt Q9ULT8), inactive: 0.0927. Take SAMHD1 C341 (UniProt Q9Y3Z3): the “log2 ratio” value is inactive: 0.137. Regarding NOP16 C36 (UniProt Q9Y3C1), the “log2 ratio” value was inactive: 0.158. The result for DLGAP4 C736 (UniProt Q9Y2H0) reads inactive: 0.308; that for MYO6 C1102 (UniProt Q9UM54), inactive: 0.26; that for GNE C357 (UniProt Q9Y223), inactive: 0.0402.

For the target BAG5 C118 (UniProt Q9UL15), the “log2 ratio” value was inactive: -0.335. The result for ACIN1 C1083 (UniProt Q9UKV3) reads inactive: 0.223; that for ICE1 C1616 (UniProt Q9Y2F5), inactive: 0.331; that for CORO1C C456 (UniProt Q9ULV4), inactive: 0.29. The result for HECTD1 C1389 (UniProt Q9ULT8) reads inactive: 0.202; that for STUB1 C244 (UniProt Q9UNE7), inactive: 0.567.
